Reference: PMC7737610
No constants are given. Whether binding was seen depends on the method and setting. In cells and extracts the contact can be indirect. For some assays here: Binding can be weak; no strength is given.

By UniProt entry, the sequences of proteins in these tests, tags left out. Where a name states a change or a piece, a line headed by the entry shows the natural chain unless it says otherwise.
UniProt Q86VP1: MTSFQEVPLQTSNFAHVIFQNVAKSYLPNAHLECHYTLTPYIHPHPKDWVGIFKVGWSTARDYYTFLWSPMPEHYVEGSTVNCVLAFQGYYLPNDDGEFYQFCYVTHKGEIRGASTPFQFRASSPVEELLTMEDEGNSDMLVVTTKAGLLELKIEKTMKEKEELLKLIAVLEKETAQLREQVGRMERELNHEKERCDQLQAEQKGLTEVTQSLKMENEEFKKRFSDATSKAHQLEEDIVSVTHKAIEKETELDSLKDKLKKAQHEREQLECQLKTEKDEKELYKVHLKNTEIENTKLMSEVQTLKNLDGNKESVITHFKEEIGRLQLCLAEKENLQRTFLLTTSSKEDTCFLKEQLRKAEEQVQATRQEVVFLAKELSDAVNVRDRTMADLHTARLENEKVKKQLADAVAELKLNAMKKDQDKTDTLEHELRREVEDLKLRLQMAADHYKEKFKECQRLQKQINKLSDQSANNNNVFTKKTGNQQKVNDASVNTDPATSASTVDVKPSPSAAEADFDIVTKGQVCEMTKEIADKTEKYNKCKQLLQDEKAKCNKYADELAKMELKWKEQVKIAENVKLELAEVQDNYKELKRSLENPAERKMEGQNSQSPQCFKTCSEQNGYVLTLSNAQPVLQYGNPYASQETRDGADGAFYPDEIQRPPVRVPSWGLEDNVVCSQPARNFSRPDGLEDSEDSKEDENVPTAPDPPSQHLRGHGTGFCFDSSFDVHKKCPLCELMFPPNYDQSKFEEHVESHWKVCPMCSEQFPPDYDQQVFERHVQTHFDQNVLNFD

Key:
[1] = molecular target: TagBFP-V5-TAX1BP1^(1–506ΔO domain) (UniProt Q86VP1); assay: co-IP; HEK293T cells transfected with TagBFP-V5-TAX1BP1 variants (with myc-TAX1BP1 WT, myc-NBR1 WT or HA-FIP200 where indicated); extracts precipitated with anti-TagBFP magnetic beads; eluates immunoblotted
[2] = molecular target: TagBFP-V5-TAX1BP1 ΔO domain (full length context) (UniProt Q86VP1); assay: as above

binding [1]: no binding | binding [2]: binds
Substance: myc-TAX1BP1^WT (from UniProt Q86VP1-1 1-789)
